Results reported in PubChem BioAssay AID504834 (National Center for Advancing Translational Sciences (NCATS), 2011).
Out of some 320,000 compounds screened, about 22,000 (6.9%) were called active. Inconclusive means that the source gave no clear call. Such entries were picked first, then a sample of the others. Calls follow the shape of the dose curve; as a rule, active = well fitted inhibition curve with a large enough effect; inconclusive = small, poorly fitted or top-dose-only effect, or another doubt; inactive = no such curve, though single readings can be large or run the other way. A potency beside an inconclusive call is a rough fit, not a confirmed value.

Assay: Primary qHTS for delayed death inhibitors of the malarial parasite plastid, 96 hour incubation
Conditions: P. falciparum luciferase reporter growth; series mostly up to 28.7 µM
How it was run: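 Infected RBCs, 2% Hct / 0.05% parasitemia final; luciferase-reporter P. falciparum; cpd 96 h, 37 C, 5% CO2; luciferase detection reagent; luminescence.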
Potency is read from the fitted curve at half-maximal effect.

SMILES	Potency
CC1CN(S(=O)(=O)Cc2ccccc2)CC(C)O1 (stereo unspecified)	inconclusive: 13.1 µM [inhibitor, single point]
Cn1c(-c2ccc(Br)cc2)cnc1NCc1ccc(C#N)cc1	inconclusive: 0.131 µM [inhibitor, full curve, poor fit]
CCOC(=O)c1c(NC(=O)COC(=O)Cc2c[nH]c3ccccc23)sc(C(=O)N(C)C)c1C	inconclusive: 10.4 µM [inhibitor, partial curve, poor fit]
CN(C)c1nc(N)nc(N(c2ccccc2)c2ccccc2)n1	inactive
CCC(=O)Nc1cccc(C(=O)c2ccc(C)c(C)c2)c1	inconclusive: 4.15 µM [inhibitor, single point]
COc1ccc(C(=O)N2CCn3c(C)ccc3C2C)cc1 (stereo unspecified)	inactive
COc1ccccc1-n1c(=O)[nH]c2c(C(N)=O)nc(C3CCCCC3)nc21	inconclusive: 18.5 µM [inhibitor, single point]
CCOC(=O)N1CCC(N(CCOC)C(=O)Nc2ccc(C)c(C)c2)CC1	inconclusive: 8.28 µM [inhibitor, partial curve]
c1ccc(CCCc2nc(-c3cccnc3)no2)cc1	inconclusive: 13.1 µM [inhibitor, single point]
O=C(NCc1cccnc1)Nc1ccc(Cl)cc1	inconclusive: 10.4 µM [inhibitor, single point]
CCOC(=O)CN(C(=O)CSc1nnc(COc2ccc(OC)cc2)n1CC)c1ccccc1	active: 6.57 µM
Cc1cc(F)ccc1S(=O)(=O)N1CCCOC1CNC(=O)C(=O)NCCC1=CCCCC1 (stereo unspecified)	inconclusive: 18.5 µM [inhibitor, single point]
Cc1cc(C(F)(F)F)nc(SCC(=O)Nc2cc(C)on2)n1	inactive
COCCCn1c(-c2cccs2)nc2nc3ccccc3nc21	inconclusive: 0.657 µM [inhibitor, partial curve, poor fit]
CSCC[C@H](NC(=O)COc1ccc(Cl)cc1Cl)c1nc2ccccc2[nH]1	inconclusive: 18.5 µM [inhibitor, single point]
COc1ccc(NC(=O)CSc2nnc3n2CCCCC3)cc1	inconclusive: 4.15 µM [inhibitor, partial curve, poor fit]
O=C(NNc1nc2c(F)cc(F)cc2s1)C1=COCCO1	inactive
Cc1cccc(C(=O)Oc2ccc(/C=N/O)cc2)c1	inconclusive: 18.5 µM [inhibitor, single point]
CCN(CC)S(=O)(=O)c1cccc2c(N(C)C)cccc12	inconclusive: 18.5 µM [inhibitor, single point]
CC(=O)N=c1sc(C(C)(C)C)c(C)n1C	inconclusive: 18.5 µM [inhibitor, single point]
O=C(Nc1ccc2[nH]ncc2c1)c1ccccc1Br	inconclusive: 18.5 µM [inhibitor, single point]
COc1ccc(Cl)cc1-n1c(=S)sc2c(=O)n(-c3ccc(F)cc3)c(SCC(=O)O)nc21	inconclusive: 18.5 µM [inhibitor, single point]
O=C(OCc1cccc(Cl)c1)c1cc([N+](=O)[O-])ccc1N1CCOCC1	active: 11.7 µM
C#CCOCCOCCOCCNc1nc(N2CCN(C(=O)Cn3cc(CCCN=C(N)N)nn3)CC2)nc(N2CCN(C(=O)[C@H](CCCCN)n3cc(CCC(=O)O)nn3)CC2)n1	inconclusive: 18.5 µM [inhibitor, single point]

SMILES	Potency
C1CCCCCC2(CCCCC1)OCC(CN1CCOCC1)O2 (stereo unspecified)	inconclusive: 13.1 µM [inhibitor, partial curve, poor fit]
CCCc1cnc(NCCNCC(O)COc2ccc(Cl)c(Cl)c2)nc1 (stereo unspecified)	active: 11.7 µM
CCOC(=O)N1CCN(CCC(=O)Nc2ccccc2OC)CC1	active: 13.1 µM
CN(C)CCCN(C(=O)c1ccc2c(c1)OCCO2)c1nc2ccc(Cl)cc2s1	active: 11.7 µM
Cc1ccc(-c2csc(NC(=O)c3c(C)noc3C)n2)cc1C	inactive
NS(=O)(=O)c1ccc(CCNC(=O)CCS(=O)(=O)c2ccc(Br)cc2)cc1	inconclusive: 11.7 µM [inhibitor, single point]
O=C(O)COc1nn(Cc2ccccc2)c2ccccc12	inconclusive: 6.75 µM [inhibitor, partial curve]
C/C(=N/NC(=O)c1ccc(O)cc1)c1cccc([N+](=O)[O-])c1	inconclusive: 10.4 µM [inhibitor, partial curve, poor fit]
CCCCCCCn1c2c(c(=N)c3ccccc31)CCC2	inactive
COC(=O)C1C(=O)OC(C)(C)C1C(C)C(=O)c1ccccc1 (stereo unspecified)	inconclusive: 18.5 µM [inhibitor, single point]
COc1ccc(C(=O)OCCOc2cccc(Cl)c2)cc1S(=O)(=O)N1CCOCC1	inactive
CCN(CC)CCNC(=O)CNC(=O)c1nn(-c2ccc(OC)cc2OC)c(=O)c2ccccc12	inconclusive: 7.38 µM [inhibitor, partial curve]
CNCc1sccc1C	inconclusive: 2.33 µM [inhibitor, full curve]
CCCCCC(=O)Nc1cccc(C2=NOC3(C2)C[C@@H](C(N)=O)N(C(=O)c2cc([N+](=O)[O-])cc([N+](=O)[O-])c2)C3)c1 (stereo partly specified)	inconclusive: 16.5 µM [inhibitor, single point]
O=C(N/N=C/c1cccnc1)C(O)(c1ccccc1)c1ccccc1	inconclusive: 0.0738 µM [inhibitor, full curve, poor fit]
CCc1c(C(=O)NCCc2cccc(C)c2)[nH]c(C)c1C(C)=O	inconclusive: 13.1 µM [inhibitor, single point]
CCN(Cc1cnn(C)c1)Cc1nc(Cc2ccccc2Cl)no1	inactive
CN(CC(=O)Nc1ccccc1C(F)(F)F)C(=O)c1cc2c(s1)CCCCC2	inconclusive: 16.5 µM [inhibitor, single point]
COc1ccc(NC(=O)CC2C(=O)N(C)C(=S)N2CCc2ccc(F)cc2)cc1 (stereo unspecified)	inconclusive: 9.28 µM [inhibitor, partial curve, poor fit]
O=C(NNC(=O)c1ccc(-n2cncn2)c([N+](=O)[O-])c1)c1cccc(Cl)c1	inconclusive: 2.62 µM [inhibitor, partial curve, poor fit]
O=C1C(c2ccc(F)cc2)N(Cc2ccc3c(c2)OCO3)C(=O)CN1C1CCCCC1 (stereo unspecified)	inactive
CCc1noc(C)c1C(=O)Nc1cc(Cl)ccc1N1CCOCC1	inactive
Cc1ccc(NC(=O)CN2CCc3ccccc3C2)cc1S(=O)(=O)N(C)C	inactive
COc1cc(/C=C/c2nc3ccc([N+](=O)[O-])cc3s2)ccc1OCC(=O)O	inactive

SMILES	Potency
COc1ccc(C(=O)/C=C\N2CCOCC2)cc1	inconclusive: 18.5 µM [inhibitor, single point]
Cc1cc(C)c(NC(=O)Nc2ccccc2)c(C)n1	inactive
O=C(CN1C(=O)NC2(CCCCC2)C1=O)Oc1ccc2ccc(=O)oc2c1	inactive
O=C(NC1CCCC1)C(c1cccnc1)N(C(=O)c1csnn1)c1ccc(F)cc1 (stereo unspecified)	inconclusive: 10.4 µM [inhibitor, single point]
Nc1nonc1-n1nnc(C(=O)N/N=C/c2cccc(Cl)c2)c1-c1ccc2c(c1)OCO2	active: 0.0329 µM
O=[N+]([O-])c1ccc(N2CCN(CCO)CC2)cc1Sc1nc2ccccc2[nH]1	inconclusive: 10.4 µM [inhibitor, partial curve]
CC(C)Sc1nc2sc(-c3ccccc3)cc2c(=O)n1N	inactive
CN(C)c1nc(=Nc2cccc(Cl)c2)ss1	inconclusive: 2.33 µM [inhibitor, full curve]
Cc1oc(CN2CCOCC2)cc1C(=O)O	inactive
CCN(CC(=O)Nc1ccccc1C(F)(F)F)C(=O)Cc1ccccc1	inactive
CCSC1=C(C#N)C(c2cccc(OC)c2)CC(=O)N1 (stereo unspecified)	inactive
CC1(C)CC(=O)C2=C(C1)Oc1ncn3nc(-c4cccnc4)nc3c1C2c1ccccc1 (stereo unspecified)	inconclusive: 13.1 µM [inhibitor, partial curve, poor fit]
CCN(CCO)C(=O)C(c1ccccc1)c1ccccc1	inconclusive: 0.117 µM [inhibitor, full curve, poor fit]
COc1ccc(OC)c(NC(=O)C2CCN(S(=O)(=O)c3ccc4c(c3)OCCO4)CC2)c1	inconclusive: 18.5 µM [inhibitor, single point]
CC(C)[C@H](NC(=O)NCc1ccco1)C(=O)O	inactive
CC12CCC(=O)N1C(C(=O)NNC(=O)COc1ccccc1F)CS2 (stereo unspecified)	inactive
CCN(CC)S(=O)(=O)c1ccc2c(c1)C(=NO)c1cc(S(=O)(=O)N(CC)CC)ccc1-2	active: 8.28 µM
Cc1oc(-c2cc(F)ccc2F)nc1CN(C)Cc1ccc2nccnc2c1	active: 2.94 µM
Cc1cc(C)cc(-n2c(N)c(C(=O)Nc3c(C)n(C)n(-c4ccccc4)c3=O)c3nc4ccccc4nc32)c1	active: 2.94 µM
Cc1nc([N+](=O)[O-])c(C(=O)OCc2ccccc2)n1C	inconclusive: 4.65 µM [inhibitor, partial curve]
Cc1c(NC(=O)NCCN2C(=O)C3C4C=CC(C4)C3C2=O)c(=O)n(-c2ccccc2)n1C (stereo unspecified)	active: 14.7 µM
C#CCNC(=O)C1=C[C@H](C2CCCCC2)[C@@H](CCCO)[C@H](OCC)O1	inconclusive: 1.65 µM [inhibitor, partial curve, poor fit]
CCN(CC)S(=O)(=O)c1cc(NC(=O)COC(=O)c2c(C)noc2C)ccc1C	inconclusive: 18.5 µM [inhibitor, single point]

Six entries from above in another layout.
SMILES,Potency
O=C(NCc1cccnc1)Nc1ccc(Cl)cc1,"inconclusive: 10.4 µM [inhibitor, single point]"
CCOC(=O)CN(C(=O)CSc1nnc(COc2ccc(OC)cc2)n1CC)c1ccccc1,active: 6.57 µM
Cc1cc(F)ccc1S(=O)(=O)N1CCCOC1CNC(=O)C(=O)NCCC1=CCCCC1 (stereo unspecified),"inconclusive: 18.5 µM [inhibitor, single point]"
Cc1cc(C(F)(F)F)nc(SCC(=O)Nc2cc(C)on2)n1,inactive
COCCCn1c(-c2cccs2)nc2nc3ccccc3nc21,"inconclusive: 0.657 µM [inhibitor, partial curve, poor fit]"
CSCC[C@H](NC(=O)COc1ccc(Cl)cc1Cl)c1nc2ccccc2[nH]1,"inconclusive: 18.5 µM [inhibitor, single point]"
